Taken from: PubChem BioAssay AID1159579 (Peter MacCallum Cancer Centre, 2015)
Assay: 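Find genes whose silencing alters migration of lymphatic endothelial cells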 (follow-up of hits). Cell system: human dermal lymphatic endothelial cells. Reagent: single siRNA against human genes, 25 nM. Read-out: 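Scratch wound imaging measuring area filled by moving cells plus nuclei number, averaged over two wells and scaled to mock-transfected controls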. Direction: migration relative to mock: higher = more migration into the scratch; mean nuclei count: higher = more cells remaining. Active means: 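a ratio of at most 0.6 or at least 1.3 marks altered migration and an active call; a mean nuclei count under 3300 forces an inactive call regardless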. Calls: active = migration changed (impaired or accelerated); inactive = no migration change, or too few cells.
Shown is an unselected part of about 2,000 reagents tested. In the full data, 549 (27%) were called active. 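Some migration ratios are negative; siRNAs with too few cells are inactive whatever their migration ratio.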 Unmarked entries are inactive. Reagents against one gene are numbered here. Not all columns of the deposit are shown. Not stated in the record: the time to read-out.

For ARL6IP6 (ARF like GTPase 6 interacting protein 6) #1, the entry reads migration relative to mock 1.08; mean nuclei count 4725.
ARL6IP6 (ARF like GTPase 6 interacting protein 6) #2 scored migration relative to mock 1.04; mean nuclei count 6574.
Knock-down of ARL6IP6 (ARF like GTPase 6 interacting protein 6) #3 came out at: migration relative to mock 1.05; mean nuclei count 5875.
For ARL6IP6 (ARF like GTPase 6 interacting protein 6) #4, the entry reads migration relative to mock 0.68; mean nuclei count 5072.
After knock-down of TPST2 (tyrosylprotein sulfotransferase 2) #1, the screen gave migration relative to mock 0.48 (active); mean nuclei count 5606.
TPST2 (tyrosylprotein sulfotransferase 2) #2 gave migration relative to mock 0.48 (active); mean nuclei count 4907.
TPST2 (tyrosylprotein sulfotransferase 2) #3 gave migration relative to mock 1.09; mean nuclei count 5718.
Knock-down of TPST2 (tyrosylprotein sulfotransferase 2) #4 came out at: migration relative to mock 0.92; mean nuclei count 6285.
Against SERPINA4 (serpin family A member 4) #1, the entry reads migration relative to mock 0.58 (active); mean nuclei count 5441.
Depletion of SERPINA4 (serpin family A member 4) #2 came out at: migration relative to mock 0.88; mean nuclei count 4764.
SERPINA4 (serpin family A member 4) #3 scored migration relative to mock 0.71; mean nuclei count 5313.
SERPINA4 (serpin family A member 4) #4 scored migration relative to mock 0.63; mean nuclei count 4668.

Targets above whose target name begins with T or t:
TPST2 (tyrosylprotein sulfotransferase 2) #1: migration relative to mock = 0.48 (active); mean nuclei count = 5606
TPST2 (tyrosylprotein sulfotransferase 2) #2: migration relative to mock = 0.48 (active); mean nuclei count = 4907
TPST2 (tyrosylprotein sulfotransferase 2) #3: migration relative to mock = 1.09; mean nuclei count = 5718
TPST2 (tyrosylprotein sulfotransferase 2) #4: migration relative to mock = 0.92; mean nuclei count = 6285

Next records follow.
With knock-down of NTM (neurotrimin) #1, the screen gave migration relative to mock 1.04; mean nuclei count 6702.
Depletion of NTM (neurotrimin) #2 resulted in: migration relative to mock 0.95; mean nuclei count 5314.
For NTM (neurotrimin) #3, the entry reads migration relative to mock 0.43 (active); mean nuclei count 6752.
NTM (neurotrimin) #4 scored migration relative to mock 0.48; mean nuclei count 3139.
Against MINK1 (misshapen like kinase 1) #1 the deposit lists migration relative to mock 0.63; mean nuclei count 6475.
MINK1 (misshapen like kinase 1) #2 showed migration relative to mock 0.72; mean nuclei count 5298.
Against MINK1 (misshapen like kinase 1) #3 the deposit lists migration relative to mock 0.82; mean nuclei count 5814.
Against MINK1 (misshapen like kinase 1) #4, the entry reads migration relative to mock -1.17; mean nuclei count 3139.
With knock-down of JHY (junctional cadherin complex regulator) #1, the screen gave migration relative to mock 0.74; mean nuclei count 5784.
JHY (junctional cadherin complex regulator) #2 showed migration relative to mock 0.28 (active); mean nuclei count 4820.
For JHY (junctional cadherin complex regulator) #3 the deposit lists migration relative to mock 0.6 (active); mean nuclei count 4600.
After knock-down of JHY (junctional cadherin complex regulator) #4, the screen gave migration relative to mock 0.9; mean nuclei count 4306.
